Measurements taken from PMC9039064.
No constants are given. Whether binding was seen depends on the method and setting. Binding seen in cells or lysates may run through a third protein. Some entries that bind do so weakly or less than the wild type. For part of these data: Tags and fused reporters may be left off the sequences shown.

Chains of the proteins cited; added tags and fusions are not shown.
UniProt Q00987: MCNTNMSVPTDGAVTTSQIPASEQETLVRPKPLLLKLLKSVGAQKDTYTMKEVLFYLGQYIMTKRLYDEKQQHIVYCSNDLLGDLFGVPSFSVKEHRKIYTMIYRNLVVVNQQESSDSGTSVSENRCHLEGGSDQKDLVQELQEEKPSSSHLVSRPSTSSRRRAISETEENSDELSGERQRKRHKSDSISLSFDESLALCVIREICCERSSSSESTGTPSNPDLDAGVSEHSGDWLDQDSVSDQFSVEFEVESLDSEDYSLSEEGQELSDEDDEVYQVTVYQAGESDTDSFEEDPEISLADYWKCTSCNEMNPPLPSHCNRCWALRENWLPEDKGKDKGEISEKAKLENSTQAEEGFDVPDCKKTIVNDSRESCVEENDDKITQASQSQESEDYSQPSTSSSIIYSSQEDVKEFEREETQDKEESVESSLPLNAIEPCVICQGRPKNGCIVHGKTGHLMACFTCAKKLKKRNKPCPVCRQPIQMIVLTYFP
UniProt Q9Y566: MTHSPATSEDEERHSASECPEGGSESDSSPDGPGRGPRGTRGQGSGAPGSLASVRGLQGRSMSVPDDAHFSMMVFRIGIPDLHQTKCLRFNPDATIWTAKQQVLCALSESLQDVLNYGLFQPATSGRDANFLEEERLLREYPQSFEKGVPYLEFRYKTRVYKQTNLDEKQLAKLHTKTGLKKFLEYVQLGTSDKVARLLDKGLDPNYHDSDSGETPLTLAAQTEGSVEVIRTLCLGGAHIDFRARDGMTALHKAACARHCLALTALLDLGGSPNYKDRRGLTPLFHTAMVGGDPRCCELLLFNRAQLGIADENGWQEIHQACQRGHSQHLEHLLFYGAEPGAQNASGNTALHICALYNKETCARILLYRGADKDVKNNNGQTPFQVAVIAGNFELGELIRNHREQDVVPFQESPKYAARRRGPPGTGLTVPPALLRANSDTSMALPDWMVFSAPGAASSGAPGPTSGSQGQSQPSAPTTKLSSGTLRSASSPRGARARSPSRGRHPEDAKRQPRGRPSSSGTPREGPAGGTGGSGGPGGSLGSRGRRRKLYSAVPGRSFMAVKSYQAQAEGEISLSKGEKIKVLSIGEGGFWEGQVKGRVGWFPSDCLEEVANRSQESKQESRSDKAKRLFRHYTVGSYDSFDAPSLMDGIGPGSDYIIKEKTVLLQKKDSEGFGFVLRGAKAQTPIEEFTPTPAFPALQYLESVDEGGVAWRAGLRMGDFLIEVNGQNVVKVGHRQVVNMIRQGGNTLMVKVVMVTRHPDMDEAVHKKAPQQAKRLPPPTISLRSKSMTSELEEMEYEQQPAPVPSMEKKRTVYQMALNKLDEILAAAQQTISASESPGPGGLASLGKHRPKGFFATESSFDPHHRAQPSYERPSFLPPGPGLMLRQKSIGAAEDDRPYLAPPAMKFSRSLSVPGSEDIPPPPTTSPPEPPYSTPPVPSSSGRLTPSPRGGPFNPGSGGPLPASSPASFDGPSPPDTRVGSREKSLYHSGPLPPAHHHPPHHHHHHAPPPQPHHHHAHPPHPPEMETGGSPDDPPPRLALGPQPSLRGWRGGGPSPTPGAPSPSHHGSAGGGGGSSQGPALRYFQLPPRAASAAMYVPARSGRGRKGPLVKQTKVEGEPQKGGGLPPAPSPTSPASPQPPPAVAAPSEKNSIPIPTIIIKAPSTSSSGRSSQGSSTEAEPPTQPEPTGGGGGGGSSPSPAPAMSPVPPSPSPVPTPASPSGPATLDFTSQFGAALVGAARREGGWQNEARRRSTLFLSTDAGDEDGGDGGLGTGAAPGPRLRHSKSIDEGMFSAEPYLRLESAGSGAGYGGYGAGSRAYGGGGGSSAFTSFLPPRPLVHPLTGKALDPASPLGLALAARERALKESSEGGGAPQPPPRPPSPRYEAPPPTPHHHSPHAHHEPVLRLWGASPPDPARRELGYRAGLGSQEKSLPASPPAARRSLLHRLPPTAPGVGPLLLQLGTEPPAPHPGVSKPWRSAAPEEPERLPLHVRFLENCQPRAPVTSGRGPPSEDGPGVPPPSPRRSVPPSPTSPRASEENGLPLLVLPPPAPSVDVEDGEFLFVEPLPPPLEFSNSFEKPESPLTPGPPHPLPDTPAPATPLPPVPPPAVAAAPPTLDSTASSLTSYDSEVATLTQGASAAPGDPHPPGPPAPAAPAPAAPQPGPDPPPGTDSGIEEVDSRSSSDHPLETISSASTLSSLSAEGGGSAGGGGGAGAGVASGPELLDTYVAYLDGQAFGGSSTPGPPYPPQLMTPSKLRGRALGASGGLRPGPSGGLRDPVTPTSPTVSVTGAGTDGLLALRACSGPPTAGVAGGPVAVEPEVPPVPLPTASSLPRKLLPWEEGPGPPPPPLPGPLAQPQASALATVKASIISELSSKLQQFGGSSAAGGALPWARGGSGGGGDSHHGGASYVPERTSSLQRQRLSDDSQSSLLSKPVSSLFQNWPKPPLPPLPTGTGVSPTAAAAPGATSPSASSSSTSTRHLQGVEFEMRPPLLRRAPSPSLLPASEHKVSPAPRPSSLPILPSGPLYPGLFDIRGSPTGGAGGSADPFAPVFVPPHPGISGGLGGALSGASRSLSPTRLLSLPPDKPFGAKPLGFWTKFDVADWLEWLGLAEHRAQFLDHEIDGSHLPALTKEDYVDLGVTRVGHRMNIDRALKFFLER

How the values were obtained:
[1] = biological target: T1, Flag-KL (Flag-tagged Klotho) (human) (UniProt Q9UEF7); assay: co-IP; transfected A549 cells (the text says HEK-293 for Fig. 5A); lysate in TNE buffer or IP buffer (50 mM Tris-HCl, 2 mM EDTA, 250 mM NaCl, 10% glycerol, 0.5% NP-40); IP with anti-FLAG, anti-HA or anti-Myc and Protein G agarose overnight at 4 °C; immunoblot; some samples with SHANK1 overexpression, sh/si-SHANK1 or si-MDM2
T1 sequence: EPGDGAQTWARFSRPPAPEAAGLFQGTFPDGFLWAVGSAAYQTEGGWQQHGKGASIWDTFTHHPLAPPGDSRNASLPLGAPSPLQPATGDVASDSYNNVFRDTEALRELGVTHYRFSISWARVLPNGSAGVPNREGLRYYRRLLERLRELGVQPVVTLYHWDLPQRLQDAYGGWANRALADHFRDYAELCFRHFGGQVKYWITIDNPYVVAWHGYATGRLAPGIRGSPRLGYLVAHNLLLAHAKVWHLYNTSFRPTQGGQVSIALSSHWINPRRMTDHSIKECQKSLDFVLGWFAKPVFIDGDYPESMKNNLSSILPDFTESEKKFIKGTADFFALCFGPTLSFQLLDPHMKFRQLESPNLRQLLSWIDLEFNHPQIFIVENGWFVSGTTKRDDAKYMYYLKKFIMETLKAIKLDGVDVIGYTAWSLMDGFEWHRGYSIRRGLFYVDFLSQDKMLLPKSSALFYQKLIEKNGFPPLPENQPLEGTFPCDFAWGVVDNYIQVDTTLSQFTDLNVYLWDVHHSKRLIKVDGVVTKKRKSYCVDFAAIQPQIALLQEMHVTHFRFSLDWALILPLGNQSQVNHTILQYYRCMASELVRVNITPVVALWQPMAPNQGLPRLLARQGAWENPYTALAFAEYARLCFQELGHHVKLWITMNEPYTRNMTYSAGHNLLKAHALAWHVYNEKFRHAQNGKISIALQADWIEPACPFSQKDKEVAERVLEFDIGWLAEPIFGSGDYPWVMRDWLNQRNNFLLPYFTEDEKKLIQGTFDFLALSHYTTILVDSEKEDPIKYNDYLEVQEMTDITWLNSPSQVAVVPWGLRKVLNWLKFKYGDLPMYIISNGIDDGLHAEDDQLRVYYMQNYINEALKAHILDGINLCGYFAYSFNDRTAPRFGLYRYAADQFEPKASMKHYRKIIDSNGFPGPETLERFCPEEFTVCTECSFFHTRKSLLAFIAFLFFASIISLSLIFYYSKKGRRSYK

[2] = biological target: T2, Klotho (KL), endogenous in human NSCLC cells (human (endogenous in A549 and H1299)) (UniProt Q9UEF7); assay: co-IP; endogenous proteins, A549 cell lysate; IP with mouse anti-MDM2 or rabbit anti-KL; immunoblot; some samples with si-SHANK1
T2 sequence: T1 sequence

[3] = biological target: MDM2, endogenous in human NSCLC cells (human (endogenous in A549 and H1299)) (UniProt Q00987); assay: as above
[4] = biological target: T2, Klotho (KL), endogenous in human NSCLC cells (human (endogenous in A549 and H1299)); assay: co-IP; endogenous proteins, H1299 cell lysate (without p53 expression); IP with KL antibody; immunoblot; with or without si-SHANK1

Substance	binding [1]	binding [2]	binding [3]	binding [4]
SHANK1-myc (SH3 and multiple ankyrin repeat domains 1, myc-tagged) (from UniProt Q9Y566 1-2161)	binds			
SHANK1, endogenous in human NSCLC cells (from UniProt Q9Y566 1-2161)		binds	binds	binds
MDM2, endogenous in human NSCLC cells (from UniProt Q00987 1-491)		binds		binds
